Results deposited as PubChem BioAssay AID1224826 (NIAID, 2016)

Screen: 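Genes that change LPS-induced Tnf promoter activity in mouse macrophages when knocked down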 (primary screen)
Cell system: RAW264.7 G9 macrophages from mouse bearing reporters for p65 (GFP) and the Tnf promoter (mCherry)
Reagents: siRNA pool against mouse genes, 100 nM
Duration: 16 h of LPS stimulation, after 2 days of siRNA transfection
Conditions: bacterial lipopolysaccharide (Salmonella minnesota R595), 10 ng/ml
Measurement: 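Nuclear mCherry signal of the Tnf promoter reporter measured by imaging after background removal, scaled to each plate median and turned into robust z-scores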
Reading the numbers: Tnf reporter robust z-score: higher = stronger Tnf promoter reporter signal after LPS
Active means: 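a well counts as active at a score of -1.3 or below (Tlr4 knock-down control median) or above 3 (raised signal); controls and wells holding fewer than 50 cells are excluded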
Meaning of the calls: active = Tnf reporter clearly lowered or raised; inactive = no clear change in Tnf reporter
The deposit covers about 17,000 reagents; below is a random part of them. About 1,110 of them (6.6%) were called active. 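Active means lowered or raised reporter signal; replicate intensities are raw and not normalised per plate.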 Entries without a mark were called inactive. Further read-outs or replicates are left out here. No sequences are given here.

Silencing of Siah1a (siah E3 ubiquitin protein ligase 1A) resulted in: Tnf reporter robust z-score -0.1; fewer than 50 cells in well enough cells in well.
Arel1 (apoptosis resistant E3 ubiquitin protein ligase 1) scored Tnf reporter robust z-score 2.06; fewer than 50 cells in well enough cells in well.
After knock-down of Scml2 (Scm polycomb group protein like 2), the screen gave Tnf reporter robust z-score 1.59; fewer than 50 cells in well enough cells in well.
Against Ppp1r21 (protein phosphatase 1, regulatory subunit 21), the values are Tnf reporter robust z-score -0.01; fewer than 50 cells in well enough cells in well.
Against Ndufs4 (NADH:ubiquinone oxidoreductase core subunit S4) the deposit lists Tnf reporter robust z-score -0.38; fewer than 50 cells in well enough cells in well.
Knock-down of Pon1 (paraoxonase 1) resulted in: Tnf reporter robust z-score -0.53; fewer than 50 cells in well enough cells in well.
With knock-down of Gtf3c6 (general transcription factor IIIC, polypeptide 6, alpha), the screen gave Tnf reporter robust z-score 0.9; fewer than 50 cells in well enough cells in well.
For Dpm2 (dolichyl-phosphate mannosyltransferase subunit 2, regulatory) the deposit lists Tnf reporter robust z-score 3.66 (active); fewer than 50 cells in well enough cells in well.
Against Pcdhgb4 (protocadherin gamma subfamily B, 4) the deposit lists Tnf reporter robust z-score -0.32; fewer than 50 cells in well enough cells in well.
Depletion of Twsg1 (twisted gastrulation BMP signaling modulator 1) resulted in: Tnf reporter robust z-score -1.66 (active); fewer than 50 cells in well enough cells in well.
Against Ints11 (integrator complex subunit 11) the deposit lists fewer than 50 cells in well fewer than 50 cells per well; well left out of calls.
For Washc2 (WASH complex subunit 2), the values are Tnf reporter robust z-score -1.77 (active); fewer than 50 cells in well enough cells in well.
For Cd36 (CD36 molecule), the values are Tnf reporter robust z-score 1.69; fewer than 50 cells in well enough cells in well.
Against Rgs20 (regulator of G-protein signaling 20), the entry reads Tnf reporter robust z-score -0.5; fewer than 50 cells in well enough cells in well.
With knock-down of Iqsec1 (IQ motif and Sec7 domain 1) the results were Tnf reporter robust z-score -1.36 (active); fewer than 50 cells in well enough cells in well.
Depletion of Actl6b (actin-like 6B) resulted in: Tnf reporter robust z-score 1.95; fewer than 50 cells in well enough cells in well.
After knock-down of Myo7a (myosin VIIA) the results were Tnf reporter robust z-score -0.69; fewer than 50 cells in well enough cells in well.
For Txn1 (thioredoxin 1), the values are Tnf reporter robust z-score 0.26; fewer than 50 cells in well enough cells in well.
For Rps6ka1 (ribosomal protein S6 kinase A1) the deposit lists Tnf reporter robust z-score 0.35; fewer than 50 cells in well enough cells in well.
Stk38 (serine/threonine kinase 38) gave Tnf reporter robust z-score 1.14; fewer than 50 cells in well enough cells in well.
Clec11a (C-type lectin domain family 11, member a) scored Tnf reporter robust z-score -0.04; fewer than 50 cells in well enough cells in well.

Ordered by “Tnf reporter robust z-score” (highest first): 2 of the entries above.
Ndufs4 (NADH:ubiquinone oxidoreductase core subunit S4) | Tnf reporter robust z-score = -0.38; fewer than 50 cells in well = enough cells in well
Pon1 (paraoxonase 1) | Tnf reporter robust z-score = -0.53; fewer than 50 cells in well = enough cells in well
